According to PubChem BioAssay AID248 (DTP/NCI, 2004):
The list shows only some results of the screen, not a fair sample: it is rich in T/C values a quarter to a half above the control, in often repeated tests (any T/C) and in doses without a T/C. Other doses and runs of a compound stand elsewhere. T/C: endpoint of the treated group in % of that of the vehicle group. Some entries give survivors of the animals treated and no T/C: the source holds a T/C of zero for them, seemingly a mark for toxic or unscored doses. Some doses without a T/C left all or most animals alive at the check, yet need not have been tolerated: the source hardly ever lists a survival T/C far under the control, and the zero likely stands for such cases as well. Survivors were counted at the toxicity check, usually on the fifth day, unless a day is given; later deaths do not show. Schedule codes are those of the source, taken here to give the interval after Q, in days (D) or hours (H), and the number of doses after X. Some entries hold several experiments; the results are listed from low to high. Where survival is the endpoint, the PubChem record calls one and a half times the control and up active, and a quarter to a half above the control has no call in these data; cut-offs in other NCI protocols can differ. Some T/C values carry the count of animals alive at the toxicity check (mostly the fifth day); where none is given, no animal had died by that day.

System: L1210 leukemia ip in BDF1 mice, survival T/C
Assay: NCI In Vivo Anticancer Drug Screen. Data for tumor model L1210 Leukemia (intraperitoneal) in B6D2F1 (BDF1) mice
Conditions: T/C endpoint: mean survival time, higher T/C = longer survival
[1] = dose: 400.0 mg/kg/injection, schedule: Q04DX003 (ip), vehicle: saline
[2] = dose: 400.0 mg/kg/injection, schedule: Q04DX002 (ip), vehicle: saline
[3] = dose: 200.0 mg/kg/injection, schedule: Q01DX009 (ip), vehicle: saline with Tween-80

Structure (SMILES): CSc1ccc(NC(=O)Nc2nccs2)cc1
- survivor count (dose: 100.0 mg/kg/injection, schedule: Q04DX003 (ip), vehicle: saline sonified): 6 of 6

Structure (SMILES): ICc1nc2ccccc2[nH]1
- survivor count (dose: 75.0 mg/kg/injection, schedule: Q01DX001 (ip), vehicle: steroid suspending solution): 4 of 6
- survivor count (dose: 150.0 mg/kg/injection, schedule: Q01DX001 (ip), vehicle: steroid suspending solution): 0 of 6
- survivor count (dose: 300.0 mg/kg/injection, schedule: Q01DX001 (ip), vehicle: steroid suspending solution): 0 of 6

Structure (SMILES): CC(C)CC(C)NCC(C)OC(=O)c1ccc(N)cc1 (centres undefined)
- survivor count (dose: 150.0 mg/kg/injection, schedule: Q01DX001 (ip), vehicle: other): 1 of 6
- survivor count (dose: 300.0 mg/kg/injection, schedule: Q01DX001 (ip), vehicle: other): 0 of 6

Structure (SMILES): CCC(=O)c1cc(O)ccc1O
- survivor count (dose: 400.0 mg/kg/injection, schedule: Q04DX003 (ip), vehicle: other): 5 of 6

Structure (SMILES): CC1NCCOC1c1ccccc1 (centres undefined)
- survivor count (dose: 100.0 mg/kg/injection, schedule: Q01DX009 (ip), vehicle: saline): 6 of 6
- survivor count (dose: 200.0 mg/kg/injection, schedule: Q01DX009 (ip), vehicle: saline): 0 of 6
- survivor count [1]: 1 of 4

Structure (SMILES): Cc1nnc2ncnc(SCc3ccccc3)c2n1
- survivor count (dose: 50.0 mg/kg/injection, schedule: Q01DX001 (ip), vehicle: Klucel (hydroxypropylcellulose) (HPC)): 6 of 6

Structure (SMILES): c1ccc2c(c1)CC1(Cc3ccccc3-2)C[N+]12CCCCC2
- survivor count (dose: 100.0 mg/kg/injection, schedule: Q04DX003 (ip), vehicle: saline): 2 of 6
- survivor count (dose: 200.0 mg/kg/injection, schedule: Q04DX003 (ip), vehicle: saline): 0 of 6
- survivor count [1]: 0 of 6

Structure (SMILES): C[NH-].C[NH-].[Cl][Pt+2][Cl]
- T/C (dose: 0.62 mg/kg/injection, schedule: Q01DX009 (ip), vehicle: water): 130 and 130 % of control [9 of 10 alive]
- T/C (dose: 1.25 mg/kg/injection, schedule: Q01DX009 (ip), vehicle: water): 131 and 134 % of control
- T/C (dose: 2.5 mg/kg/injection, schedule: Q01DX009 (ip), vehicle: water): 129 % of control
- survivor count (dose: 3.0 mg/kg/injection, schedule: Q03HX024 (ip), vehicle: water): 6 of 6
- T/C (dose: 3.12 mg/kg/injection, schedule: Q01DX009 (ip), vehicle: saline with Tween-80): 134 % of control
- survivor count (dose: 5.0 mg/kg/injection, schedule: Q01DX009 (ip), vehicle: water): 9 of 10 and 10 of 10
- T/C (dose: 6.0 mg/kg/injection, schedule: Q01DX009 (ip), vehicle: saline with Tween-80): 128 % of control
- survivor count (dose: 6.0 mg/kg/injection, schedule: Q03HX024 (ip), vehicle: water): 1 of 6
- T/C (dose: 6.25 mg/kg/injection, schedule: Q01DX009 (ip), vehicle: saline with Tween-80): 141 % of control
- survivor count (dose: 6.25 mg/kg/injection, schedule: Q03HX008 (ip), vehicle: water): 4 of 6
- survivor count (dose: 8.0 mg/kg/injection, schedule: Q01DX009 (ip), vehicle: other): 0 of 6
- T/C (dose: 8.0 mg/kg/injection, schedule: Q04DX003 (ip), vehicle: saline with Tween-80): 130 % of control
- survivor count (dose: 10.0 mg/kg/injection, schedule: Q01DX009 (ip), vehicle: water): 5 of 10 and 7 of 10
- T/C (dose: 12.0 mg/kg/injection, schedule: Q04DX003 (ip), vehicle: saline with Tween-80): 132 % of control
- T/C (dose: 12.0 mg/kg/injection, schedule: Q04DX003 (ip), vehicle: water): 137 % of control
- T/C (dose: 12.5 mg/kg/injection, schedule: Q01DX001 (ip), vehicle: water): 129 % of control
- survivor count (dose: 12.5 mg/kg/injection, schedule: Q03HX008 (ip), vehicle: water): 0 of 6
- T/C (dose: 12.5 mg/kg/injection, schedule: Q04DX003 (ip), vehicle: saline with Tween-80): 146 % of control
- T/C (dose: 18.0 mg/kg/injection, schedule: Q04DX003 (ip), vehicle: saline with Tween-80): 132 and 148 % of control
- survivor count (dose: 24.0 mg/kg/injection, schedule: Q04DX003 (ip), vehicle: water): 5 of 6
- survivor count (dose: 25.0 mg/kg/injection, schedule: Q01DX009 (ip), vehicle: saline with Tween-80): 5 of 6
- survivor count (dose: 25.0 mg/kg/injection, schedule: Q04DX003 (ip), vehicle: saline with Tween-80): 6 of 6
- survivor count (dose: 32.0 mg/kg/injection, schedule: Q01DX009 (ip), vehicle: other): 0 of 6
- survivor count (dose: 48.0 mg/kg/injection, schedule: Q04DX003 (ip), vehicle: water): 0 of 6
- survivor count (dose: 50.0 mg/kg/injection, schedule: Q01DX001 (ip), vehicle: water): 0 of 6
- survivor count (dose: 50.0 mg/kg/injection, schedule: Q01DX009 (ip), vehicle: saline with Tween-80): 0 of 6
- survivor count (dose: 64.0 mg/kg/injection, schedule: Q01DX001 (ip), vehicle: other): 3 of 6
- survivor count (dose: 100.0 mg/kg/injection, schedule: Q01DX001 (ip), vehicle: water): 1 of 6
- survivor count (dose: 100.0 mg/kg/injection, schedule: Q04DX003 (ip), vehicle: saline with Tween-80): 1 of 6
- survivor count (dose: 200.0 mg/kg/injection, schedule: Q04DX003 (ip), vehicle: saline with Tween-80): 0 of 6
- survivor count (dose: 400.0 mg/kg/injection, schedule: Q04DX003 (ip), vehicle: saline with Tween-80): 0 of 6

Structure (SMILES): C/C=C/C=C\COC(=O)C(C)(C)CCC
- T/C [2]: 130 % of control

Structure (SMILES): [CH3][Pb]([CH3])([CH3])[O]C(=O)c1ccc([N+](=O)[O-])cc1
- survivor count (dose: 25.0 mg/kg/injection, schedule: Q04DX002 (ip), vehicle: Klucel (hydroxypropylcellulose) (HPC)): 2 of 3
- survivor count (dose: 50.0 mg/kg/injection, schedule: Q04DX002 (ip), vehicle: Klucel (hydroxypropylcellulose) (HPC)): 0 of 3
- survivor count (dose: 100.0 mg/kg/injection, schedule: Q04DX002 (ip), vehicle: Klucel (hydroxypropylcellulose) (HPC)): 0 of 3
- survivor count (dose: 200.0 mg/kg/injection, schedule: Q04DX002 (ip), vehicle: Klucel (hydroxypropylcellulose) (HPC)): 0 of 3
- survivor count (dose: 400.0 mg/kg/injection, schedule: Q04DX002 (ip), vehicle: Klucel (hydroxypropylcellulose) (HPC)): 0 of 3

Structure (SMILES): Oc1c(Cl)c(Cl)cc(Cl)c1Cc1c(Cl)cc(Cl)c(Cl)c1[O][Pb]([c]1ccccc1)([c]1ccccc1)[c]1ccccc1
- survivor count (dose: 25.0 mg/kg/injection, schedule: Q01DX009 (ip), vehicle: saline): 3 of 6
- survivor count (dose: 50.0 mg/kg/injection, schedule: Q04DX002 (ip), vehicle: saline): 2 of 3
- survivor count (dose: 100.0 mg/kg/injection, schedule: Q04DX002 (ip), vehicle: saline): 3 of 3
- survivor count (dose: 200.0 mg/kg/injection, schedule: Q04DX002 (ip), vehicle: saline): 0 of 3
- survivor count [2]: 0 of 3

Structure (SMILES): CCOC(=O)NCC(CCN1CCCCC1)(c1cccc2ccccc12)C(C)C (centres undefined)
- survivor count (dose: 400.0 mg/kg/injection, schedule: Q04DX003 (ip), vehicle: Klucel (hydroxypropylcellulose) (HPC)): 1 of 6

Structure (SMILES): CCCCCSP(SCCCCC)c1ccccc1
- survivor count (dose: 400.0 mg/kg/injection, schedule: Q01DX009 (ip), vehicle: Klucel (hydroxypropylcellulose) (HPC)): 0 of 6

Structure (SMILES): O=C(Nc1ccc(Cl)cc1)Oc1c(Cl)cc(Cl)c(Cl)c1[N+](=O)[O-]
- survivor count (dose: 400.0 mg/kg/injection, schedule: Q04DX002 (ip), vehicle: gum acacia): 0 of 3

Structure (SMILES): CC(C)CC(C)OC(C[N+](=O)[O-])C(Cl)(Cl)Cl (centres undefined)
- survivor count [3]: 6 of 6

Structure (SMILES): O=C(Nc1ccc(Cl)c(Cl)c1)OCn1ncc2ccc([N+](=O)[O-])cc21
- survivor count (dose: 100.0 mg/kg/injection, schedule: Q01DX001 (ip), vehicle: saline): 4 of 4

Structure (SMILES): CC(=O)OC1OC(COC(=O)c2ccccc2)C(OC(=O)c2ccccc2)C1OC(=O)c1ccccc1 (centres undefined)
- survivor count (dose: 200.0 mg/kg/injection, schedule: Q01DX009 (ip), vehicle: Klucel (hydroxypropylcellulose) (HPC)): 6 of 6

Structure (SMILES): CCN(C(C)(C)C(SSSC(c1ccc(Cl)cc1)C(C)(C)N(CC)S(C)(=O)=O)c1ccc(Cl)cc1)S(C)(=O)=O (centres undefined)
- survivor count [3]: 5 of 6
- survivor count (dose: 400.0 mg/kg/injection, schedule: Q01DX009 (ip), vehicle: saline with Tween-80): 0 of 6
